Test results: the supplement of paper PMC10735217
The list shows a part of the results. Repeats in this data set agree poorly, so a single value says little.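 Human kidney-derived cells stably carry a construct in which eight TEAD-binding elements drive luciferase, measured by luminescence in a drug-repurposing library screen. A hit is any compound whose signal exceeds the plate mean by more than five robust Z scores.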

Test system: HEK293A TEAD-LUC reporter
Assay: TEAD-luciferase reporter activity (YAP activation), robust Z score vs plate; higher = stronger YAP/TEAD activation
Settings: 24 h

SMILES | TEAD-luciferase reporter activity (compound concentration: 200 nM) | TEAD-luciferase reporter activity (compound concentration: 2 uM) | TEAD-luciferase reporter activity (compound concentration: 10 uM)
COc1ccc(/C=C/NC=O)cc1 [(E)-N-(4-methoxystyryl)formamide] | inactive: -0.248 | inactive: 0.782 | inactive: 0.718
CCCCC[C@H](O)/C=C/[C@H]1CCC(=O)[C@@H]1CCCCCCC(=O)O | inactive: -0.947 | inactive: 2.3 | inactive: -1.19
CC(=O)Oc1ccccc1C(=O)SCCC(=O)NCC(=O)O | inactive: -0.0892 | inactive: 0.623 | inactive: -0.704
O=C(c1ccc(/C=C/c2n[nH]c3ccccc23)cc1)N1CCNCC1 | inactive: 2.18 | inactive: 3.96 | active: 5.27
CCC(C(=O)OCCN1CCOC(c2ccccc2)C1C)c1ccccc1 (stereo not given) | inactive: -0.833 | inactive: 0.778 | inactive: 0.682
CO[C@H]1C[C@@H]2CC[C@@H](C)[C@@](O)(O2)C(=O)C(=O)N2CCCC[C@H]2C(=O)O[C@H]([C@H](C)C[C@@H]2CC[C@H](n3cnnn3)[C@H](OC)C2)CC(=O)[C@H](C)/C=C(\C)[C@@H](O)[C@@H](OC)C(=O)[C@H](C)C[C@H](C)/C=C/C=C/C=C/1C [Zotarolimus] | active: 5.96 | inactive: -0.543 | inactive: 4.95
NC(N)=Nc1nc(CSCC/C(N)=N/S(N)(=O)=O)cs1 [Famotidine] | inactive: -2.04 |  | inactive: 2.74
NC(N)=Nc1nc(CSCC/C(N)=N/S(N)(=O)=O)cs1 [famotidine] |  | inactive: -0.221 | 
COc1cc(C)ccc1OCC(=O)N1CCC(C)Sc2ccccc21 (stereo not given) | inactive: -1.21 | inactive: -1.11 | inactive: 0.883
CN1C(C(=O)Nc2ccccn2)=C(O)c2sccc2S1(=O)=O [Tenoxicam] | inactive: 0.572 | inactive: -0.682 | inactive: 2.88
CC(C)(C)C1CCC(CC2=C(O)C(=O)c3ccccc3C2=O)CC1 (stereo not given) [Buparvaquone] | inactive: -0.686 | inactive: -0.569 | inactive: -0.247
O=C1N=C(N2CCOCC2)CN1c1ccc(Cl)cc1 | inactive: -0.428 | inactive: 3.58 | inactive: -1.53
COc1ccc(CC(=O)N2CCC(C(=O)N3CCC(N4CCCC4=O)CC3)CC2)cc1 | inactive: -0.45 |  | inactive: 0.169
C[C@H](C(=O)N1Cc2ccccc2CC2(CCCN2C)C1)c1ccccc1 (stereo not given in full) | inactive: -2.51 |  | inactive: 4.71
C[C@H](O)C(=O)N1CCC(CCn2c(Sc3cc4c(cc3Br)OCO4)nc3c(N)ncnc32)CC1 | inactive: -1.48 | inactive: -0.193 | inactive: -0.491

Fetched one by one from the entries so far (2):
SMILES | TEAD-luciferase reporter activity (compound concentration: 200 nM) | TEAD-luciferase reporter activity (compound concentration: 2 uM) | TEAD-luciferase reporter activity (compound concentration: 10 uM)
CC(=O)Oc1ccccc1C(=O)SCCC(=O)NCC(=O)O | inactive: -0.0892 | inactive: 0.623 | inactive: -0.704
CC(C)(C)C1CCC(CC2=C(O)C(=O)c3ccccc3C2=O)CC1 (stereo not given) [Buparvaquone] | inactive: -0.686 | inactive: -0.569 | inactive: -0.247
